Source: PubChem BioAssay AID1508588 (Peter MacCallum Cancer Centre, 2020)
In all, the deposit lists about 18,000 reagents; shown is a part drawn at random. Over the whole deposit, 790 (4.4%) are marked active. 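Calls rest on a combination of fold-change classes in drug and vehicle arms, not all shown here.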 Reagents against one gene are numbered here. Reagent sequences are not shown.

Screen: 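Which gene losses make BRAF-mutant melanoma cells more responsive to vemurafenib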 (primary screen)
Cells: human WM266.4 melanoma cells (BRAF V600 mutant)
Reagent: siRNA pool against human genes, 40 nM
Time to read-out: 96 h from transfection to read-out
Challenge: vemurafenib 300 nM (about IC25), added 48 h after transfection, for 48 h; comparison arm got DMSO vehicle only
Measurement: 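Ratios to non-targeting siRNA for cell gain, counted as DAPI nuclei after minus before drug and averaged over two replicates, and for absorbance-read medium lactate per cell; both binned into fold-change classes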
Scale: cell gain with vemurafenib: higher = more cell gain than with non-targeting siRNA; lactate per cell with vemurafenib: higher = more lactate made per cell
Active means: 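a knock-down counts as enhancing when its fold-change classes with vehicle and with vemurafenib, taken together, show a stronger drug effect on cell gain or lactate per cell; exact class pairs not stated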
Meaning of the calls: active = enhances vemurafenib effect; inactive = no enhancement seen

How did the screen score CELA2A?
cell gain with vemurafenib: 0.58; lactate per cell with vemurafenib: 0.3; activity call: active

For AFAP1, what does the deposit list?
cell gain with vemurafenib: 0.32; lactate per cell with vemurafenib: 0.78; activity call: inactive

What is on record for SMAD5?
cell gain with vemurafenib: 0.72; lactate per cell with vemurafenib: 0.78; activity call: inactive

Which result is listed for RNGTT?
cell gain with vemurafenib: 0.3; lactate per cell with vemurafenib: 1.55; activity call: inactive

Which result is listed for LINC01588?
cell gain with vemurafenib: 0.2; lactate per cell with vemurafenib: 0.22; activity call: inactive

How did the screen score GIMAP1?
cell gain with vemurafenib: 1.19; lactate per cell with vemurafenib: 0.97; activity call: inactive

With NDUFA9, what was measured?
cell gain with vemurafenib: 1.02; lactate per cell with vemurafenib: 1.5; activity call: inactive

For PLPP4, how do the results read?
cell gain with vemurafenib: 0.33; lactate per cell with vemurafenib: 1.44; activity call: inactive

What did the screen give for SYNCRIP?
cell gain with vemurafenib: 0.3; lactate per cell with vemurafenib: 1.28; activity call: inactive

For JOSD1, how do the results read?
cell gain with vemurafenib: 0.67; lactate per cell with vemurafenib: 0.7; activity call: inactive

With USP7, what does the deposit list?
cell gain with vemurafenib: 0.35; lactate per cell with vemurafenib: 1.27; activity call: inactive

What is on record for TBXA2R?
cell gain with vemurafenib: 0.11; lactate per cell with vemurafenib: 0.95; activity call: inactive

What is on record for MRPL55?
cell gain with vemurafenib: 0.61; lactate per cell with vemurafenib: 1.29; activity call: inactive

Which result is listed for DOK2?
cell gain with vemurafenib: 0.11; lactate per cell with vemurafenib: 0.55; activity call: active

What did the screen give for DOCK2?
cell gain with vemurafenib: 0.18; lactate per cell with vemurafenib: 1.64; activity call: inactive

What did the screen give for PSMB7?
cell gain with vemurafenib: 0.1; lactate per cell with vemurafenib: 2.46; activity call: inactive

For SLC35E4, how do the results read?
cell gain with vemurafenib: 0.92; lactate per cell with vemurafenib: 2.05; activity call: inactive

What did the screen give for DPP6?
cell gain with vemurafenib: 1.02; lactate per cell with vemurafenib: 0.69; activity call: inactive

With SUMO3, what was measured?
cell gain with vemurafenib: 0.67; lactate per cell with vemurafenib: 0.8; activity call: inactive

For CTNNBIP1, what was measured?
cell gain with vemurafenib: 0.82; lactate per cell with vemurafenib: 0.9; activity call: inactive

Which result is listed for NTSR2?
cell gain with vemurafenib: 0.29; lactate per cell with vemurafenib: 2.53; activity call: inactive

Which result is listed for SACK1A?
cell gain with vemurafenib: 0.1; lactate per cell with vemurafenib: 2.95; activity call: inactive

Which result is listed for FBXO34?
cell gain with vemurafenib: 0.96; lactate per cell with vemurafenib: 0.73; activity call: inactive

How did the screen score SPOCK3?
cell gain with vemurafenib: 0.07; lactate per cell with vemurafenib: 3.58; activity call: inactive

For TRIML1, what was measured?
cell gain with vemurafenib: 0.94; lactate per cell with vemurafenib: 0.7; activity call: inactive

With FBXO33, how do the results read?
cell gain with vemurafenib: 0.72; lactate per cell with vemurafenib: 0.71; activity call: inactive

With PRCD, what was measured?
cell gain with vemurafenib: 0.96; lactate per cell with vemurafenib: 1.18; activity call: inactive

For TMEM132E, what was measured?
cell gain with vemurafenib: 0.52; lactate per cell with vemurafenib: 0.74; activity call: inactive

For TAS2R13, what was measured?
cell gain with vemurafenib: 0.7; lactate per cell with vemurafenib: 0.57; activity call: inactive

With ZNF80, what does the deposit list?
cell gain with vemurafenib: 0.65; lactate per cell with vemurafenib: 0.62; activity call: inactive

How did the screen score NPAS3?
cell gain with vemurafenib: 0.54; lactate per cell with vemurafenib: 0.6; activity call: inactive

4 entries from above, reformatted.
target | pool no. | cell gain with vemurafenib | lactate per cell with vemurafenib | activity call
SACK1A | 1 | 0.1 | 2.95 | inactive
FBXO34 | 1 | 0.96 | 0.73 | inactive
SPOCK3 | 1 | 0.07 | 3.58 | inactive
TRIML1 | 1 | 0.94 | 0.7 | inactive

Continued:
For RPL3, what was measured?
cell gain with vemurafenib: -0.08; lactate per cell with vemurafenib: 1.88; activity call: inactive

With REPS2, what was measured?
cell gain with vemurafenib: 0.69; lactate per cell with vemurafenib: 0.7; activity call: inactive

Which result is listed for GGNBP2?
cell gain with vemurafenib: 0.44; lactate per cell with vemurafenib: 1.6; activity call: inactive

With TRAT1, what was measured?
cell gain with vemurafenib: 0.22; lactate per cell with vemurafenib: 0.79; activity call: inactive

For KRTAP19-4, what was measured?
cell gain with vemurafenib: 0.31; lactate per cell with vemurafenib: 0.92; activity call: inactive

With BTBD7, how do the results read?
cell gain with vemurafenib: 0.31; lactate per cell with vemurafenib: 0.84; activity call: inactive

What is on record for ZIM2?
cell gain with vemurafenib: 0.62; lactate per cell with vemurafenib: 0.68; activity call: inactive

With PRMT2, what does the deposit list?
cell gain with vemurafenib: 0.31; lactate per cell with vemurafenib: 0.84; activity call: inactive

What did the screen give for GMNN?
cell gain with vemurafenib: 0.49; lactate per cell with vemurafenib: 0.9; activity call: inactive

Which result is listed for SS18?
cell gain with vemurafenib: 0.73; lactate per cell with vemurafenib: 0.68; activity call: active

For USP22, how do the results read?
cell gain with vemurafenib: 0.57; lactate per cell with vemurafenib: 1; activity call: inactive

For AUH, what was measured?
cell gain with vemurafenib: 0.59; lactate per cell with vemurafenib: 0.96; activity call: inactive

Which result is listed for GSTCD?
cell gain with vemurafenib: 0.52; lactate per cell with vemurafenib: 1.1; activity call: inactive

How did the screen score COA8?
cell gain with vemurafenib: 0.61; lactate per cell with vemurafenib: 1.11; activity call: inactive

How did the screen score MAP7?
cell gain with vemurafenib: 0.47; lactate per cell with vemurafenib: 1.36; activity call: inactive

How did the screen score CHCHD5?
cell gain with vemurafenib: 0.75; lactate per cell with vemurafenib: 0.24; activity call: inactive

For RIMS4, what does the deposit list?
cell gain with vemurafenib: 0.27; lactate per cell with vemurafenib: 1.93; activity call: inactive

With UBE2C, how do the results read?
cell gain with vemurafenib: 0.69; lactate per cell with vemurafenib: 1.2; activity call: inactive

What is on record for DMRT1?
cell gain with vemurafenib: 0.53; lactate per cell with vemurafenib: 0.97; activity call: inactive

For DHDDS, what was measured?
cell gain with vemurafenib: 1.15; lactate per cell with vemurafenib: 0.44; activity call: inactive

For TXNRD3 #1, what was measured?
cell gain with vemurafenib: 0.77; lactate per cell with vemurafenib: 0.56; activity call: inactive

For TXNRD3 #2, what was measured?
cell gain with vemurafenib: 0.71; lactate per cell with vemurafenib: 1.26; activity call: inactive
